From article PMC9931111
No constants are given. Whether binding was seen depends on the method and setting. Binding calls can cover weak binding; strength is not graded here. For some of these results: Sequences can lack the tags named with a protein. For some of these results: Binding seen in cells or lysates may run through a third protein. Blank lines part the entries; values can stand above or below the substance they belong to.

Experiments:
[1] = target: T1, full length CERBERUS, yeast two-hybrid fusion (Lotus japonicus) (UniProt C6L7U1); assay: two-hybrid; GAL4-based yeast two-hybrid in strain AH109; growth on SD/-LWH after gradient dilution, three days
T1 sequence: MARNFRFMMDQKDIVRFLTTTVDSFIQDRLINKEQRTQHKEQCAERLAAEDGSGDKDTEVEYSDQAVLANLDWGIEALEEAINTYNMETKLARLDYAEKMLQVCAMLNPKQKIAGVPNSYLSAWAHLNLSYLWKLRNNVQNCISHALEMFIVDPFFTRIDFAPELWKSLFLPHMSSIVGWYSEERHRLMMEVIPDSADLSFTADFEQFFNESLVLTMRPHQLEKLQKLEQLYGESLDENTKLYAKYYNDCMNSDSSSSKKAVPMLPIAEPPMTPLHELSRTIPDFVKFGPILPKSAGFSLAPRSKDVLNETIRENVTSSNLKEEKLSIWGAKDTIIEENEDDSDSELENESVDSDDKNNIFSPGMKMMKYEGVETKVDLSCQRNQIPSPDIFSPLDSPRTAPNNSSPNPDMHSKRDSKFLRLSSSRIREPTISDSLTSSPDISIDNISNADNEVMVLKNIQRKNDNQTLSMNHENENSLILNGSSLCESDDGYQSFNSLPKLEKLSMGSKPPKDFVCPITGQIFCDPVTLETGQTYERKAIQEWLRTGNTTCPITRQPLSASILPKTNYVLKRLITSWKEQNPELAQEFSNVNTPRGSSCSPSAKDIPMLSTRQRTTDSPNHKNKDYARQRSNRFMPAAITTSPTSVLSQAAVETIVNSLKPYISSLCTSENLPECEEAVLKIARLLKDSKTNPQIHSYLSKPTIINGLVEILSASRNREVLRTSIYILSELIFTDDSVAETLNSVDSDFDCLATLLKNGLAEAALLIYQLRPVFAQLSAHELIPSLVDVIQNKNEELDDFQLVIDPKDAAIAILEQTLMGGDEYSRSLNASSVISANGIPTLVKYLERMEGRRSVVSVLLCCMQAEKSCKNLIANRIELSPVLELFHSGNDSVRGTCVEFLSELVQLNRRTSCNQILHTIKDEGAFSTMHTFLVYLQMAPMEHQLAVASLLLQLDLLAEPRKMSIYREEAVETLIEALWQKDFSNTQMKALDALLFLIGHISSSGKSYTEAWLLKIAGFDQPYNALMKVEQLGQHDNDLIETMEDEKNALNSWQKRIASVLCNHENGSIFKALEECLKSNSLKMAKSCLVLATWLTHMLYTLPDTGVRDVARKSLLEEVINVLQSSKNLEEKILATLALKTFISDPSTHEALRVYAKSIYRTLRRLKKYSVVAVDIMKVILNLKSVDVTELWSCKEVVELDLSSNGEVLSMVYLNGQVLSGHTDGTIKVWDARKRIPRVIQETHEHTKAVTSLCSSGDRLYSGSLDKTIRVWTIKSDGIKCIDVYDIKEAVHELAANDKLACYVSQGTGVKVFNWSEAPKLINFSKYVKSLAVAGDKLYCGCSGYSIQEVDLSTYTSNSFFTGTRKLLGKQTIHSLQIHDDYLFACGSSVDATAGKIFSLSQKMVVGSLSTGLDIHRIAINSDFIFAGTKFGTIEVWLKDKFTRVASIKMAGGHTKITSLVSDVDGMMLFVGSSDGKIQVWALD

[2] = target: T2, nVenus-CERBERUS (Lotus japonicus) (UniProt C6L7U1); assay: split reporter; BiFC with split Venus in N. benthamiana leaves, agroinfiltration with p19, confocal images two to three days later
T2 sequence: T1 sequence

[3] = target: T2, nVenus-CERBERUS (Lotus japonicus); assay: split reporter; BiFC with split Venus in M. truncatula sunn-1 hairy roots, after inoculation with S. meliloti 1021/mCherry
[4] = target: T2, nVenus-CERBERUS (Lotus japonicus); assay: split reporter; BiFC with split Venus in L. japonicus Gifu hairy roots (root hairs), before and after rhizobial inoculation
[5] = target: T3, CERBERUS-mCherry (Lotus japonicus) (UniProt C6L7U1); assay: co-IP; GFP-RPG and CERBERUS-mCherry co-expressed in N. benthamiana leaves, harvested 60 h after agroinfiltration; lysate (50 mM Tris-MES pH 8.0, 0.5 M sucrose, 1 mM MgCl2, 10 mM EDTA, 5 mM DTT, 0.2% NP-40) incubated 1.5 h at 4°C with Anti-RFP Affinity beads; immunoblot with anti-mCherry and …
T3 sequence: T1 sequence

[6] = target: T4, CERBERUS-LUCn (Lotus japonicus) (UniProt C6L7U1); assay: split reporter; split-luciferase complementation imaging in N. benthamiana leaves, agroinfiltration with p19, imaged two days later after spraying 1 mM luciferin
T4 sequence: T1 sequence

- binding [1]: binds
Substance: full-length RPG (RPG-FL), yeast two-hybrid fusion (Lotus japonicus)

- binding [2]: binds
- binding [3]: binds
- binding [4]: binds
Substance: cVenus-RPG (Lotus japonicus)

- binding [5]: binds
Substance: GFP-RPG (Lotus japonicus)

- binding [1]: binds
Substance: RPG lacking the NT-C2 domain (CC), yeast two-hybrid fusion (Lotus japonicus) (domain or fragment)

- binding [6]: binds
Substance: LUCc-RPG (Lotus japonicus)
